No constants are given. Whether binding was seen depends on the method and setting. In cells and extracts the contact can be indirect. These calls come from enrichment with a bait or labelling near it, and not all partners need be listed. Where a sequence is shown, tags or fusion partners need not be part of it.

By UniProt entry, the sequences of proteins in these tests, tags left out.
UniProt Q96HP0: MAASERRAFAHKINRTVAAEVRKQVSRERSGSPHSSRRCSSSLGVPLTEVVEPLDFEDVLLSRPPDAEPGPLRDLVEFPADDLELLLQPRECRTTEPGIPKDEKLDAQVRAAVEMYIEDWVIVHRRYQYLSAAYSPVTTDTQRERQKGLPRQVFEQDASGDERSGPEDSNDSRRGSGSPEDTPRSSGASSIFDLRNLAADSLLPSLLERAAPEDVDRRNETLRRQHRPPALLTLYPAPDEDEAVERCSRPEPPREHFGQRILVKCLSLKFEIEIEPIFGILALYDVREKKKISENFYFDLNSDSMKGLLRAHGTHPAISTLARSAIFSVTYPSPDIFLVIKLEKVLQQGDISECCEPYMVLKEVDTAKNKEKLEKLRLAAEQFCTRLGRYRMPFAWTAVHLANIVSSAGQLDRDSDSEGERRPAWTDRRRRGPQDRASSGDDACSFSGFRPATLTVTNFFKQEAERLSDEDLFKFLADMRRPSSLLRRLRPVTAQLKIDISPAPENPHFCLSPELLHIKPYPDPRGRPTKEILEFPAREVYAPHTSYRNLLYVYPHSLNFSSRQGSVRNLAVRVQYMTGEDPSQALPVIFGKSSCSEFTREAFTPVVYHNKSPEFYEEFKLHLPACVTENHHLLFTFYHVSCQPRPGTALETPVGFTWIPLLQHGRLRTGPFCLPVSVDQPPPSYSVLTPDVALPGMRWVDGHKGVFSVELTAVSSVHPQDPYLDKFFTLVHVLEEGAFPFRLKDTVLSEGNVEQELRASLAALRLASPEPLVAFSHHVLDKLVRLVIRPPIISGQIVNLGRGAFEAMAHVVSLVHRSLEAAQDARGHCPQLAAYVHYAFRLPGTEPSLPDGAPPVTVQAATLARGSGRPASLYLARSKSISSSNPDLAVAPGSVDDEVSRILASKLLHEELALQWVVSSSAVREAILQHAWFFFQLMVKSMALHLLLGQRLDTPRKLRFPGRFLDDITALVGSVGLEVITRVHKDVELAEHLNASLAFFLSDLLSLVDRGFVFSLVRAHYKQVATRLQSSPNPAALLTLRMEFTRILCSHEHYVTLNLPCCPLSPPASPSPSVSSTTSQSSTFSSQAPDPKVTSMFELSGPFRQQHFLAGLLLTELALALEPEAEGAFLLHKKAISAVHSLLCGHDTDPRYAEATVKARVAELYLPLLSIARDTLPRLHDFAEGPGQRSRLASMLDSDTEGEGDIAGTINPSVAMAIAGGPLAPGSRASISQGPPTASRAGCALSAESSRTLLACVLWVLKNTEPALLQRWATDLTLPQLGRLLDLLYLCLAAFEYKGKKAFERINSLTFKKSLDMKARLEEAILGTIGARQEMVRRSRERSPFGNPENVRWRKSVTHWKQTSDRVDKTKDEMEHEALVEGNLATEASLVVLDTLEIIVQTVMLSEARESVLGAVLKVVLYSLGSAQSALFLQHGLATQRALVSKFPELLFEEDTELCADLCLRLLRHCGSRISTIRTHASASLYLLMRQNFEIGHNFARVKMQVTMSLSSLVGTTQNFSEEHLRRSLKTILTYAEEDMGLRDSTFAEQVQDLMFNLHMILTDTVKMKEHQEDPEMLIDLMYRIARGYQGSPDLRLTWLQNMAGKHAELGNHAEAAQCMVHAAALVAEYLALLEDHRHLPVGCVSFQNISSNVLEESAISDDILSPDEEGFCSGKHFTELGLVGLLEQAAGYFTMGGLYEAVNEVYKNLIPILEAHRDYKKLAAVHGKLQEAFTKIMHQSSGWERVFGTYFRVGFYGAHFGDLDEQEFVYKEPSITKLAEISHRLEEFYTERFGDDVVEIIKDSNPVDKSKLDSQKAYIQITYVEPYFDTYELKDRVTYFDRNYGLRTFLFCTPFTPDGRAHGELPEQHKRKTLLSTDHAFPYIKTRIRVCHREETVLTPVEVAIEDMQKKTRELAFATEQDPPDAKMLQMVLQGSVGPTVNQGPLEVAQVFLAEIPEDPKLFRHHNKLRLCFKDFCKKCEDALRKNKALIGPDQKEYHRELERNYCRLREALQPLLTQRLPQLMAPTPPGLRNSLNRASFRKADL
UniProt Q8NF50: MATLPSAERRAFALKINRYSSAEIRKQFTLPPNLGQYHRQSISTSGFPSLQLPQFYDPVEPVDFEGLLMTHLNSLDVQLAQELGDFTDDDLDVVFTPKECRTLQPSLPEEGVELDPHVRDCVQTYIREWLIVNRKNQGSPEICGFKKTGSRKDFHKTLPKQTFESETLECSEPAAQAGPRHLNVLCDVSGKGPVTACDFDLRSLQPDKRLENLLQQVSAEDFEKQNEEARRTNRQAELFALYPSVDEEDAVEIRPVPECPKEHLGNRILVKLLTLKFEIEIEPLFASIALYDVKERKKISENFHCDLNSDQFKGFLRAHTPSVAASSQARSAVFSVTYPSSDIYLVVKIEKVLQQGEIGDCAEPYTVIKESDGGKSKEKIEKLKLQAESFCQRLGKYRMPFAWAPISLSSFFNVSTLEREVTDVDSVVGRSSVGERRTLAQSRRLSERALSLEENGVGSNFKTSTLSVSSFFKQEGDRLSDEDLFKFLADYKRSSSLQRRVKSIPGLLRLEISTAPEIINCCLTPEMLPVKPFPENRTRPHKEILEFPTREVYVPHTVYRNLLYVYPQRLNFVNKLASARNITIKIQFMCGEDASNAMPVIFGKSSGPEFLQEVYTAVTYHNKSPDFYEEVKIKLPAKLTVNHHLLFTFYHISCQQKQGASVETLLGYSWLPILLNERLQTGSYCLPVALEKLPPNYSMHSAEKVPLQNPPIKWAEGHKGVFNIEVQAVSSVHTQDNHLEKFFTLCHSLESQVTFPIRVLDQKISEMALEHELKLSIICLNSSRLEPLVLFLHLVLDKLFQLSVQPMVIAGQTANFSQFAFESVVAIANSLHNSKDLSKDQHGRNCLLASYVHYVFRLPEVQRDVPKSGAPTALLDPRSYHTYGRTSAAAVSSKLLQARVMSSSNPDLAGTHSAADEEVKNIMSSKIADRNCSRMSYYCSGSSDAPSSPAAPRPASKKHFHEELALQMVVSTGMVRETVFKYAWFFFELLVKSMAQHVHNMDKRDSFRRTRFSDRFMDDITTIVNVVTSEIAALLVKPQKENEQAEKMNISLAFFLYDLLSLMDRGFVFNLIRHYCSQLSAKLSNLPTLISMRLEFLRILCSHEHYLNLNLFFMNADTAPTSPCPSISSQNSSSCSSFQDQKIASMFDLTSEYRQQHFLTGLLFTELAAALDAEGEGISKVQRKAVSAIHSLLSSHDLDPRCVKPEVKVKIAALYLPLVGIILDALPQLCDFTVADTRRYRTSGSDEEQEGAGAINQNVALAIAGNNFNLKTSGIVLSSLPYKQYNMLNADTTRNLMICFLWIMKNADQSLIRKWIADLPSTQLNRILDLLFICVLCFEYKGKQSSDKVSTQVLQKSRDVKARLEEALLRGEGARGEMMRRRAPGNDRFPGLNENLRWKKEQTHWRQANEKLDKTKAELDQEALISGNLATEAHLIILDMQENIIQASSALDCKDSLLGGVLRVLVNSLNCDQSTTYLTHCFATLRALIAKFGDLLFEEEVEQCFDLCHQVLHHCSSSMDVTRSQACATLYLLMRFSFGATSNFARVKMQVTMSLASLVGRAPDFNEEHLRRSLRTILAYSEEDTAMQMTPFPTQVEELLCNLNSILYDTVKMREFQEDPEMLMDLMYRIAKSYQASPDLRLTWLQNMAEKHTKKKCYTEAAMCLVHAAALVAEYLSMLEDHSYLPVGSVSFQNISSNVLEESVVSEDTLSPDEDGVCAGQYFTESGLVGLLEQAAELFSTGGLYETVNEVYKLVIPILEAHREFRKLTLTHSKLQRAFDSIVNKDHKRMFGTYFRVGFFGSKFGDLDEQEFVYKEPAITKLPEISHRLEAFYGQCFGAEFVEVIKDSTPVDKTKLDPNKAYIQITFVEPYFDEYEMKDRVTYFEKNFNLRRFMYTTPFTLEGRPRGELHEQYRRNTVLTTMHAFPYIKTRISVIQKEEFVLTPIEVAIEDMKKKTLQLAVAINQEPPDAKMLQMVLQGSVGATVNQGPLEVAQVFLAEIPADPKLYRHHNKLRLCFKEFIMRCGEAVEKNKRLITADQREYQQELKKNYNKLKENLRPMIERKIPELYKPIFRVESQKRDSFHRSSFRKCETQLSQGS
UniProt O60934: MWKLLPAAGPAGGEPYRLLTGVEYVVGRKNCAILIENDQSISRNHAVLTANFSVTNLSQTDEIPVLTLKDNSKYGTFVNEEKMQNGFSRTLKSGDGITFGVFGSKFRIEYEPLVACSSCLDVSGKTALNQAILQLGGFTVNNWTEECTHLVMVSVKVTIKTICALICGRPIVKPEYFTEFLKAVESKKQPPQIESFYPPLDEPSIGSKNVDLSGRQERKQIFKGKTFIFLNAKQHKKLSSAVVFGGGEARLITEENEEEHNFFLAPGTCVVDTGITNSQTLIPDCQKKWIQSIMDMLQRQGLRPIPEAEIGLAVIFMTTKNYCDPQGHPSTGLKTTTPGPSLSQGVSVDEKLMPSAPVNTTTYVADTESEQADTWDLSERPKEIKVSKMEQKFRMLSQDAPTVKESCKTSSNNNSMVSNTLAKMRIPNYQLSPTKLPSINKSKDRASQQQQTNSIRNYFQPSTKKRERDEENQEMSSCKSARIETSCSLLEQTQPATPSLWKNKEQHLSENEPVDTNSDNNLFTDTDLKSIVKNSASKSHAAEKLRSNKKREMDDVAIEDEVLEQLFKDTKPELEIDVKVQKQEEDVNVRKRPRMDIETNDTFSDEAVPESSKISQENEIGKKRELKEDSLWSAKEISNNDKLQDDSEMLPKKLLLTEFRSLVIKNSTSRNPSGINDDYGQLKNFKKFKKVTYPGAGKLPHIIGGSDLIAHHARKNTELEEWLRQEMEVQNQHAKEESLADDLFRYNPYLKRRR
UniProt Q92878: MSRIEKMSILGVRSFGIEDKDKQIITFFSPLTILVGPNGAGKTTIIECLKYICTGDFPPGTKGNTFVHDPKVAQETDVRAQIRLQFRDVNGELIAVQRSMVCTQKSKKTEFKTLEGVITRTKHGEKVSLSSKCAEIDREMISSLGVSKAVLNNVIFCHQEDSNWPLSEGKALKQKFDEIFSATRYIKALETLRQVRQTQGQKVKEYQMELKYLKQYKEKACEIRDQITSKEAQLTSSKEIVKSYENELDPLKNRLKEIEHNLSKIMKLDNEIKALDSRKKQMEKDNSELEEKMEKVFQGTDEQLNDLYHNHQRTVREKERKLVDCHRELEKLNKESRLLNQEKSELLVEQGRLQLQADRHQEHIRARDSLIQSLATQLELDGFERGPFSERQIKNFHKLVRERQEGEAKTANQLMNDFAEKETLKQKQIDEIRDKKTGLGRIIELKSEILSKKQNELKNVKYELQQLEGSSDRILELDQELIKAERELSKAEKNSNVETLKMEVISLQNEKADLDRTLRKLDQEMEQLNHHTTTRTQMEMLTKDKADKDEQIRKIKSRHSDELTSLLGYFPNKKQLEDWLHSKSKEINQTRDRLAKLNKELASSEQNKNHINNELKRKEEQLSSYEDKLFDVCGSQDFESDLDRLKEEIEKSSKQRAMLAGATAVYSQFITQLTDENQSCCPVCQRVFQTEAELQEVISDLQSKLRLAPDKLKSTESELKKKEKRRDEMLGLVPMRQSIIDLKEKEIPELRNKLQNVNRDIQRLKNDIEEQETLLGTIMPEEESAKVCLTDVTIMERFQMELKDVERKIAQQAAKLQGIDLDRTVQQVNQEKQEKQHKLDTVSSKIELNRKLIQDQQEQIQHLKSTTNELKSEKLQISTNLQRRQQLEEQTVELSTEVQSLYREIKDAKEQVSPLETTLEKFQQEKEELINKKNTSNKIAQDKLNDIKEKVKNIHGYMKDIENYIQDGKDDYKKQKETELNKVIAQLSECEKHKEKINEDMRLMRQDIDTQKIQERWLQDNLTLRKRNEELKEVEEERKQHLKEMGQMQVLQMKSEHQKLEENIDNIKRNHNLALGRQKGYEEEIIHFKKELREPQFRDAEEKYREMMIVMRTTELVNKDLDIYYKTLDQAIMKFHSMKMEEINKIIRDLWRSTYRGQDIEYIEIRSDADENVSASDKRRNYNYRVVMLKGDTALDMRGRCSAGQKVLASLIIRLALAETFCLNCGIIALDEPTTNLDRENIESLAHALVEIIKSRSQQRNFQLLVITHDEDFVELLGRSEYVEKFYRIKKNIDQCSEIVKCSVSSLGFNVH

Drawing on publication PMC10480535, this text covers binding for twelve molecules.

What all share (test): proximity labelling; BioID: BirA*-FLAG-MOB baits in tetracycline-inducible HEK293 and HeLa Flp-In T-REx cells; tetracycline 1 ug/ml and biotin 50 uM for 24 h; mass spectrometry; SAINTexpress against BirA*-FLAG and BirA*-FLAG-EGFP controls, BFDR <=0.01; the two cell lines' datasets combined for the MoSS score
Test [1] has as its target T1, BirA*-FLAG-MOB1A (human) (UniProt Q9H8S9).
T1 sequence: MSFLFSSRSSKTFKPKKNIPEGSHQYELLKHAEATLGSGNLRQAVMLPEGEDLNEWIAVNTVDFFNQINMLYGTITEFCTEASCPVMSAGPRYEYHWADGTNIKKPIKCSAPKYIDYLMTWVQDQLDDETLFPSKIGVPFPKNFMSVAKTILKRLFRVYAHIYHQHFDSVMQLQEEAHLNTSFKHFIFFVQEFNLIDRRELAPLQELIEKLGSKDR

Test [2] deals with T2, BirA*-FLAG-MOB1B (human) (UniProt Q7L9L4).
T2 sequence: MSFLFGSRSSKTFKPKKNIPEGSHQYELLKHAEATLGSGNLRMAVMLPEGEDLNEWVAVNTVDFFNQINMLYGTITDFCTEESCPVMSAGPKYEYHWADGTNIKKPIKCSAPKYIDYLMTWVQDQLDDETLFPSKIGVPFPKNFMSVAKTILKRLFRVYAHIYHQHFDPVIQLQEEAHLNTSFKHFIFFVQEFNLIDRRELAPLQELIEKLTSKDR

In test [3] the target is T3, BirA*-FLAG-MOB2 (human) (UniProt Q70IA6).
T3 sequence: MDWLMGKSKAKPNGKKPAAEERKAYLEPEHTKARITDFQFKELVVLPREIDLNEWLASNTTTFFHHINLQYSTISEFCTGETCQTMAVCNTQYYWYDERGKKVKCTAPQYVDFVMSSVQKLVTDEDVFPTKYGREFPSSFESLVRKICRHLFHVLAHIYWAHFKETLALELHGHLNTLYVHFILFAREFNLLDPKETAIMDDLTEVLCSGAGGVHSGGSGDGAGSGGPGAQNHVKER

On to DOCK6 (from UniProt Q96HP0 1-2047), for which the binding result in test [1] and in test [2] was “binds” throughout.
Regarding DOCK8 (from UniProt Q8NF50 1-2099), the binding entry in test [1] and in test [2] was “binds” throughout.
Turning to NBN (from UniProt O60934 1-754), in test [3], the binding entry is “binds”.
On the same count and under the same terms, to RAD50 (from UniProt Q92878 1-1312) belongs “binds”; to STK38L (from UniProt Q9Y2H1 1-464), “binds”; to “valosin-containing protein (from UniProt P55072 1-806)”, “binds”.

B1: LRCH2 (protein, UniProt Q5VUJ6 1-765)
chain: MAASQGGGGNSGGGGCGGGGSSGGCGTAGGGGGGAGGGGGGGGGTLVVPIPVPTLFGQPFPNGPPWNPGSLQPQHTVRSLDRALEEAGSSGILSLSGRKLRDFPGSGYDLTDTTQADLSRNRFTEIPSDVWLFAPLETLNLYHNCIKTIPEAIKNLQMLTYLNISRNLLSTLPKYLFDLPLKVLVVSNNKLVSIPEEIGKLKDLMELDISCNEIQVLPQQMGKLHSLRELNIRRNNLHVLPDELGDLPLVKLDFSCNKVTEIPVCYRKLHHLQVIILDNNPLQVPPAQICLKGKVHIFKYLNIQACCRMDKKPDSLDLPSLSKRMPSQPLTDSMEDFYPNKNHGPDSGIGSDNGEKRLSTTEPSDDDTVSLHSQVSESNREQTSRNDSHIIGSKTDSQKDQEVYDFVDPNTEDVAVPEQGNAHIGSFVSFFKGKEKCSEKSRKNEELGDEKRLEKEQLLAEEEDDDLKEVTDLRKIAAQLLQQEQKNRILNHSTSVMRNKPKQTVECEKSVSADEVNSPLSPLTWQPLENQKDQIDEQPWPESHPIIWQSEERRRSKQIRKEYFKYKSMRKSSSGNENDEQDSDNANMSTQSPVSSEEYDRTDGFSHSPFGLKPRSAFSRSSRQEYGAADPGFTMRRKMEHLREEREQIRQLRNNLESRLKVILPDDIGAALMDGVVLCHLANHIRPRSVASIHVPSPAVPKLSMAKCRRNVENFLDACKKLGVSQERLCLPHHILEERGLVKVGVTVQALLELPTTKASQLSVA
Take B1: the binding result in test [1] and in test [2] was “binds” throughout.

B2: NSFL1C (protein, UniProt Q9UNZ2 1-370)
chain: MAAERQEALREFVAVTGAEEDRARFFLESAGWDLQIALASFYEDGGDEDIVTISQATPSSVSRGTAPSDNRVTSFRDLIHDQDEDEEEEEGQRFYAGGSERSGQQIVGPPRKKSPNELVDDLFKGAKEHGAVAVERVTKSPGETSKPRPFAGGGYRLGAAPEEESAYVAGEKRQHSSQDVHVVLKLWKSGFSLDNGELRSYQDPSNAQFLESIRRGEVPAELRRLAHGGQVNLDMEDHRDEDFVKPKGAFKAFTGEGQKLGSTAPQVLSTSSPAQQAENEAKASSSILIDESEPTTNIQIRLADGGRLVQKFNHSHRISDIRLFIVDARPAMAATSFILMTTFPNKELADESQTLKEANLLNAVIVQRLT
On to B2, for which the binding entry in test [3] is listed as “binds”.

B3: TXNL1 (protein, UniProt O43396 1-289)
chain: MVGVKPVGSDPDFQPELSGAGSRLAVVKFTMRGCGPCLRIAPAFSSMSNKYPQAVFLEVDVHQCQGTAATNNISATPTFLFFRNKVRIDQYQGADAVGLEEKIKQHLENDPGSNEDTDIPKGYMDLMPFINKAGCECLNESDEHGFDNCLRKDTTFLESDCDEQLLITVAFNQPVKLYSMKFQGPDNGQGPKYVKIFINLPRSMDFEEAERSEPTQALELTEDDIKEDGIVPLRYVKFQNVNSVTIFVQSNQGEEETTRISYFTFIGTPVQATNMNDFKRVVGKKGESH
On to B3, for which the binding entry in test [3] is given as “binds”.

B4: LRCH3 (protein, UniProt Q96II8 1-777)
chain: MAAAGLVAVAAAAEYSGTVASGGNLPGVHCGPSSGAGPGFGPGSWSRSLDRALEEAAVTGVLSLSGRKLREFPRGAANHDLTDTTRADLSRNRLSEIPIEACHFVSLENLNLYQNCIRYIPEAILNLQALTFLNISRNQLSTLPVHLCNLPLKVLIASNNKLVSLPEEIGHLRHLMELDVSCNEIQTIPSQIGNLEALRDLNVRRNHLVHLPEELAELPLIRLDFSCNKITTIPVCYRNLRHLQTITLDNNPLQSPPAQICIKGKVHIFKYLNIQACKIAPDLPDYDRRPLGFGSCHEELYSSRPYGALDSGFNSVDSGDKRWSGNEPTDEFSDLPLRVAEITKEQRLRRESQYQENRGSLVVTNGGVEHDLDQIDYIDSCTAEEEEAEVRQPKGPDPDSLSSQFMAYIEQRRISHEGSPVKPVAIREFQKTEDMRRYLHQNRVPAEPSSLLSLSASHNQLSHTDLELHQRREQLVERTRREAQLAALQYEEEKIRTKQIQRDAVLDFVKQKASQSPQKQHPLLDGVDGECPFPSRRSQHTDDSALCMSLSGLNQVGCAATLPHSSAFTPLKSDDRPNALLSSPATETVHHSPAYSFPAAIQRNQPQRPESFLFRAGVRAETNKGHASPLPPSAAPTTDSTDSITGQNSRQREEELELIDQLRKHIEYRLKVSLPCDLGAALTDGVVLCHLANHVRPRSVPSIHVPSPAVPKLTMAKCRRNVENFLEACRKIGVPQEQLCLPLHILEEKGLSQVAVTVQALLELAPPKQQQHQLSAV
As for B4, the binding result in test [1] and in test [2] was “binds” throughout.

B5: LRCH1 (protein, UniProt Q9Y2L9 1-728)
chain: MATPGSEPQPFVPALSVATLHPLHHPHHHHHHHQHHGGTGAPGGAGGGGGGSGGFNLPLNRGLERALEEAANSGGLNLSARKLKEFPRTAAPGHDLSDTVQADLSKNRLVEVPMELCHFVSLEILNLYHNCIRVIPEAIVNLQMLTYLNLSRNQLSALPACLCGLPLKVLIASNNKLGSLPEEIGQLKQLMELDVSCNEITALPQQIGQLKSLRELNVRRNYLKVLPQELVDLSLVKFDFSCNKVLVIPICFREMKQLQVLLLENNPLQSPPAQICTKGKVHIFKYLSIQACQIKTADSLYLHTMERPHLHQHVEDGKKDSDSGVGSDNGDKRLSATEPSDEDTVSLNVPMSNIMEEEQIIKEDSCHRLSPVKGEFHQEFQPEPSLLGDSTNSGEERDQFTDRADGLHSEFMNYKARAEDCEELLRIEEDVHWQTEGIISSSKDQDMDIAMIEQLREAVDLLQDPNGLSTDITERSVLNLYPMGSAEALELQDSALNGQIQLETSPVCEVQSDLTLQSNGSQYSPNEIRENSPAVSPTTNSTAPFGLKPRSVFLRPQRNLESIDPQFTIRRKMEQMREEKELVEQLRESIEMRLKVSLHEDLGAALMDGVVLCHLVNHIRPRSVASIHVPSPAVPKLSMAKCRRNVENFLEACRKLGVPEADLCSPCDILQLDFRHIRKTVDTLLALGEKAPPPTSALRSRDLIGFCLVHILFIVLVYITYHWNALSA
As for B5, the binding entry in test [1] and in test [2] was “binds” each time.

B6: Periphilin 1 (protein, UniProt Q8NEY8 1-458)
chain: MWSEGRYEYERIPRERAPPRSHPSDGYNRLVNIVPKKPPLLDRPGEGSYNRYYSHVDYRDYDEGRSFSHDRRSGPPHRGDESGYRWTRDDHSASRQPEYRDMRDGFRRKSFYSSHYARERSPYKRDNTFFRESPVGRKDSPHSRSGSSVSSRSYSPERSKSYSFHQSQHRKSVRPGASYKRQNEGNPERDKERPVQSLKTSRDTSPSSGSAVSSSKVLDKPSRLTEKELAEAASKWAAEKLEKSDESNLPEISEYEAGSTAPLFTDQPEEPESNTTHGIELFEDSQLTTRSKAIASKTKEIEQVYRQDCETFGMVVKMLIEKDPSLEKSIQFALRQNLHEIESAGQTWQQVPPVRNTEMDHDGTPENEGEETAQSAPQPPQAPQPLQPRKKRVRRTTQLRRTTGAPDITWGMLKKTTQEAERILLRTQTPFTPENLFLAMLSVVHCNSRKDVKPENKQ
With B6, in test [3], the binding entry was “binds”.
